{"source": "the supplement of paper PMC7411640", "note": "Where a name gives a salt, the structure may show the parent alone. The list shows a part of the results. This data set is noisy: repeats of one test often differ as much as different tests do."}
{"tested_on": "MDA-MB-468", "test": "phospho-S6 immunofluorescence (DAPI-normalised), per-plate z-score; higher = higher phospho-S6 signal (less pathway suppression)", "conditions": "compound 0.1 µM; co-treatment: vehicle; 24 h", "experimental": "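GPCR-targeted compound library (MedChemExpress HY-L006) tested on MDA-MB-468 PTEN-null TNBC cells in 384-well plates at 0.1, 1 or 10 uM, combined with vehicle, GDC0941 450 nM or lapatinib 1 uM, for 24 h. Phospho-S6 (S240/244) immunofluorescence normalised to DAPI and expressed as a per-plate z-score; values are the mean of biological triplicates.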"}
{"smiles": "Cc1cncc(CN2CCC(=C3c4ccc(Cl)cc4CCc4cccnc43)CC2)c1", "note": "[Rupatadine (Fumarate)]", "phospho-S6 immunofluorescence (z-score)": -2.36}
{"smiles": "Cn1cc(C(=O)[C@@H]2CCc3[nH]cnc3C2)c2ccccc21", "note": "[Ramosetron (Hydrochloride)]", "phospho-S6 immunofluorescence (z-score)": -0.48}
{"smiles": "N#Cc1cc(NC(=O)C(=O)O)c(Cl)c(NC(=O)C(=O)O)c1", "note": "[Lodoxamide]", "phospho-S6 immunofluorescence (z-score)": 0.83}
{"smiles": "OCCOCCN1CCN(C(c2ccccc2)c2ccc(Cl)cc2)CC1", "note": "(configuration not stated) [Hydroxyzine (dihydrochloride)]", "phospho-S6 immunofluorescence (z-score)": -1.4}
{"smiles": "COc1ccc2c(c1OC)C(=O)O[C@@H]2[C@H]1c2c(cc3c(c2OC)OCO3)CCN1C", "note": "[Noscapine]", "phospho-S6 immunofluorescence (z-score)": 0.38}
{"smiles": "CCc1nn(CCCN2CCN(c3cccc(Cl)c3)CC2)c(=O)n1CCOc1ccccc1", "note": "[Nefazodone (hydrochloride)]", "phospho-S6 immunofluorescence (z-score)": 0.21}
{"smiles": "CN(C)CCCN1c2ccccc2Sc2ccccc21", "note": "[Promazine (hydrochloride)]", "phospho-S6 immunofluorescence (z-score)": 0.88}
{"smiles": "CN(C)CCC(c1ccc(Cl)cc1)c1ccccn1", "note": "(configuration not stated) [Chlorpheniramine (maleate)]", "phospho-S6 immunofluorescence (z-score)": -0.19}
{"smiles": "CCCCc1nc(C)c(CC(=S)N(C)C)c(=O)n1Cc1ccc(-c2ccccc2-c2nnn[nH]2)cc1", "note": "[Fimasartan]", "phospho-S6 immunofluorescence (z-score)": 0.18}
{"smiles": "C[N+]1(C)CCC(=C(c2ccccc2)c2ccccc2)CC1", "note": "[Diphenmanil (methylsulfate)]", "phospho-S6 immunofluorescence (z-score)": 1.51}
{"smiles": "OCCOCCN1CCN(C2=Nc3ccccc3Sc3ccccc32)CC1", "note": "[Quetiapine (fumarate)]", "phospho-S6 immunofluorescence (z-score)": -0.29}
{"smiles": "COc1cc2nc(N3CCN(C(=O)c4ccco4)CC3)nc(N)c2cc1OC", "note": "[Prazosin (hydrochloride)]", "phospho-S6 immunofluorescence (z-score)": -0.57}
